Protein sequences, listed by entry. Tags and fused reporters are not part of them. Lines headed by an entry give the natural chain unless they say otherwise; changes in a name come on top.
UniProt Q86VI4: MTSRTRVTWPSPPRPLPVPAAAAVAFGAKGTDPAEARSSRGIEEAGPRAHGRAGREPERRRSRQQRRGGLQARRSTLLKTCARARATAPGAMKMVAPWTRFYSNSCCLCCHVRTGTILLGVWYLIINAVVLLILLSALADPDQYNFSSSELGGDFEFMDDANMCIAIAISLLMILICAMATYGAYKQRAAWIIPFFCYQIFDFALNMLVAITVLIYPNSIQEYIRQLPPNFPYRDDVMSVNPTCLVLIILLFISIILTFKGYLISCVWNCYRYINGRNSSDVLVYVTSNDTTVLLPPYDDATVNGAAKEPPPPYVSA
UniProt P61586: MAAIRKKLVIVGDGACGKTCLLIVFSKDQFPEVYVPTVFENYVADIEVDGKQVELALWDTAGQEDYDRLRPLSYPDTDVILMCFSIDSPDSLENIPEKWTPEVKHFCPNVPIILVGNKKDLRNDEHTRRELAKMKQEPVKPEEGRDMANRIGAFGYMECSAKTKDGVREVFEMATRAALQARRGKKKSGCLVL

In paper PMC10163001:

Target: HA-tagged LAPTM4B (Lysosome Associated Protein Transmembrane 4B) (UniProt Q86VI4)
Assay: co-IP; immunoprecipitation with HA antibody from HA-tagged LAPTM4B stably expressing cells and control cells; blot with antibody against RhoA

binding: binds
Substance: RhoA (from UniProt P61586 1-193)

No constants are given. Whether binding was seen depends on the method and setting. Binding seen in cells or lysates may run through a third protein. A result given as binding can be weak or reduced; the word gives no strength.
